Results published in article PMC4721963.

By UniProt entry, the sequences of proteins in these tests, tags left out.
UniProt Q16531: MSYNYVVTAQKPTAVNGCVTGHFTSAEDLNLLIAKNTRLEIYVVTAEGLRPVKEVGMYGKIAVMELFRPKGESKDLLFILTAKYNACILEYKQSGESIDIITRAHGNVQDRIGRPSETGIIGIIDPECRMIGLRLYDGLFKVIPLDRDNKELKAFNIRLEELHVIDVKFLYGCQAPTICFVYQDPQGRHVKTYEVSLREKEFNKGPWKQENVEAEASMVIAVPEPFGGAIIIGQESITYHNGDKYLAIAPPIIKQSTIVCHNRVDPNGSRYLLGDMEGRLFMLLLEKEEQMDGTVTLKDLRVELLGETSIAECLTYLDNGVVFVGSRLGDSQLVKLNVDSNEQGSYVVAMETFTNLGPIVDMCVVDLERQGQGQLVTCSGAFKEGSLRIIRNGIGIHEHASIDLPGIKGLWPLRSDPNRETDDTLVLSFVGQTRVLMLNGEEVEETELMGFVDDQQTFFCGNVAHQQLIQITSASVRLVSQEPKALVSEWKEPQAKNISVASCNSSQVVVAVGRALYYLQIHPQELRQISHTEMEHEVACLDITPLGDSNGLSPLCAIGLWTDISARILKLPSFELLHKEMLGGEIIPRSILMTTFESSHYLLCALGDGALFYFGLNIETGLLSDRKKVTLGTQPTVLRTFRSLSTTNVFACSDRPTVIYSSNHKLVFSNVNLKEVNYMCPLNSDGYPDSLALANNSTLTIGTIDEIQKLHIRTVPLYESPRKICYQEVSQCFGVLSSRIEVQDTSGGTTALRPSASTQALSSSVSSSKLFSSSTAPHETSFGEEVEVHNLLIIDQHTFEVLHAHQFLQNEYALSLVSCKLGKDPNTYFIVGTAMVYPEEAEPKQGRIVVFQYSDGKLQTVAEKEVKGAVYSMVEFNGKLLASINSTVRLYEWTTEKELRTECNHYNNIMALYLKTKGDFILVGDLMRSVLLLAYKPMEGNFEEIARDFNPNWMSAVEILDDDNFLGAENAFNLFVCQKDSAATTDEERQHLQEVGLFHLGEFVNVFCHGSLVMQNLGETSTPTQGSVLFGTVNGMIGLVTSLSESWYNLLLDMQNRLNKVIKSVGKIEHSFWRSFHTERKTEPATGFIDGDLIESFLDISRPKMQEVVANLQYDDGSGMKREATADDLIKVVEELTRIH
UniProt Q13620: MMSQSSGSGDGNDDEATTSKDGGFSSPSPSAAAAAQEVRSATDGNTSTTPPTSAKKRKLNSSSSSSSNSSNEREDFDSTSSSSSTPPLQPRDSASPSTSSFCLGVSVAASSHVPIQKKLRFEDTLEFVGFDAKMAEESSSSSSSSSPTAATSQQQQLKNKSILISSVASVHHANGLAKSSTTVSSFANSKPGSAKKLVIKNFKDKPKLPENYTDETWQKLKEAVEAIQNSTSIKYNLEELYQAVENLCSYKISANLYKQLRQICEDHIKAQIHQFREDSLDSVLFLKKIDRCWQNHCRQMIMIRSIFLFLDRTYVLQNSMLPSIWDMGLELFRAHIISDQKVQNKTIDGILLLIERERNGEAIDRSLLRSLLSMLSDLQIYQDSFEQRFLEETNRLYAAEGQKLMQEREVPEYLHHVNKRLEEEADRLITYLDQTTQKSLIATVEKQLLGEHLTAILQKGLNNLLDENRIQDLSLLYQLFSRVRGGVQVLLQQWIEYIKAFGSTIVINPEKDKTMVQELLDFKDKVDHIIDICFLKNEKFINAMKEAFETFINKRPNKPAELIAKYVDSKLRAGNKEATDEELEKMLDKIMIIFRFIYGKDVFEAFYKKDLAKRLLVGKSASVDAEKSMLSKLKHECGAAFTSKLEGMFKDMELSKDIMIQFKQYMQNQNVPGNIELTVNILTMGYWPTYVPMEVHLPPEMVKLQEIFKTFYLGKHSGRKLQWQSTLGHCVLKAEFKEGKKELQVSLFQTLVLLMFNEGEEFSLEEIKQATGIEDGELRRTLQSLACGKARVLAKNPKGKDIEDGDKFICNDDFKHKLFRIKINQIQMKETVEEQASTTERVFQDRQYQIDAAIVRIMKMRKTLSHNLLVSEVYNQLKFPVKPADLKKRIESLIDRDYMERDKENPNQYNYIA
UniProt Q8N7N5: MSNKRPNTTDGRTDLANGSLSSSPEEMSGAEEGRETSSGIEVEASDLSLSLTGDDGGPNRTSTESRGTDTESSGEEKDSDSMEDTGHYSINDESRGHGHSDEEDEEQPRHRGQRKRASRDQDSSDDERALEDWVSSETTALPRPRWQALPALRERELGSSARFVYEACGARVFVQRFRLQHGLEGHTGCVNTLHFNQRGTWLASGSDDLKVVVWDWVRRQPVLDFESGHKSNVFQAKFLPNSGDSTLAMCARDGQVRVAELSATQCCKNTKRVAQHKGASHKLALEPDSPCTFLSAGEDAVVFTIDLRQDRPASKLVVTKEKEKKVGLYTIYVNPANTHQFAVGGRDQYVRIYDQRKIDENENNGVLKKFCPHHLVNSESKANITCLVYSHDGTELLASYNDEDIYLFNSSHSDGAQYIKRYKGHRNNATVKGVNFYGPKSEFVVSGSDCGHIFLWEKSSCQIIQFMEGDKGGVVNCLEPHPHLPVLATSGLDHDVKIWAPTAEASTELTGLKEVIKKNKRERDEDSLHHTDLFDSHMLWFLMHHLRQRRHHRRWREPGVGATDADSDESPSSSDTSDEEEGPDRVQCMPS

Assays:
[1] = biological target: DDB1 in tandem with HA/Flag tags (pCDNA-HA-Flag-DDB1), transiently expressed in 293T (human) (UniProt Q16531); test: affinity purification with mass spectrometry; HA-Flag-DDB1 transfected in 293T, 48 h, 10 uM MG132 for 4 h; lysis in 100 mM Tris-HCl pH 7.5, 150 mM NaCl, 1% Triton-X100, 1 mM EDTA, 2 mM MgCl2; tagged protein purified, trypsin, LC-MS/MS
[2] = biological target: DDB1 in tandem with StrepII/Flag tags (pBS31-N-SF-DDB1), doxycycline-inducible in ESC (human) (UniProt Q16531); test: affinity purification with mass spectrometry; StrepII/Flag-DDB1 in ESC induced with 2 uM doxycycline for 3 days, 10 uM MG132 for 2 h; lysis in 100 mM Tris-HCl pH 7.5, 150 mM NaCl, 1% Triton-X100, 1 mM EDTA, 2 mM MgCl2; bound to StrepTactin beads, eluted, trypsin, LC-MS/MS
[3] = biological target: DDB1 in tandem with Strep/Flag tags (pMIG-N-SF-DDB1), stably transduced in HL60 (human) (UniProt Q16531); test: affinity purification with mass spectrometry; Strep/Flag-DDB1 stably transduced in HL-60; lysis in 100 mM Tris-HCl pH 7.5, 150 mM NaCl, 1% Triton-X100, 1 mM EDTA, 2 mM MgCl2; bound to StrepTactin beads, eluted, trypsin, LC-MS/MS

With “CUL4B (endogenous in 293T) (from UniProt Q13620 1-913)” the binding [1] was “binds”.

For “DCAF8 (endogenous in ESC) (from UniProt Q8N7N5 1-591)”, the binding [2] was “binds”.

B1: DCAF7 (endogenous in HL60) (protein, UniProt P61962 1-342)
chain: MSLHGKRKEIYKYEAPWTVYAMNWSVRPDKRFRLALGSFVEEYNNKVQLVGLDEESSEFICRNTFDHPYPTTKLMWIPDTKGVYPDLLATSGDYLRVWRVGETETRLECLLNNNKNSDFCAPLTSFDWNEVDPYLLGTSSIDTTCTIWGLETGQVLGRVNLVSGHVKTQLIAHDKEVYDIAFSRAGGGRDMFASVGADGSVRMFDLRHLEHSTIIYEDPQHHPLLRLCWNKQDPNYLATMAMDGMEVVILDVRVPCTPVARLNNHRACVNGIAWAPHSSCHICTAADDHQALIWDIQQMPRAIEDPILAYTAEGEINNVQWASTQPDWIAICYNNCLEILRV
For B1, the binding [3] was “binds”.

Results are given in words; binding and its absence hold for the method and conditions named. In cells and extracts the contact can be indirect. A yes stands for co-enrichment or nearness to the bait. Other partners may have been found.
